From patent US20090104711A1, “FLUORESCENT MARKER COMPRISING DOUBLE BOND ESTER GROUP AND METHOD FOR MARKING AND DETECTING THE SAME” (priority 2005, published 2009)

Experiment: Qualitative analysis using markers: fluorescence of marked kerosene oil after adding lithium methoxide
Conditions: marker 10 ppm in kerosene oil; for Color: fluorescence colour, 7.5% lithium methoxide developer; for λmax (nm): fluorescence, 5 ml 7.5% lithium methoxide added to 50 ml, irradiation wavelength 350-570 nm per compound (Table 1 r6)

Molecule	Color	λmax (nm)
CCCCCCCC/C=C\CCCCCCCC(=O)Oc1cc(=O)oc2ccccc12 [Example 1, 4-coumarin oleate]	blue	471
CCCCCCCCC=CCCCCCCCC(=O)Oc1ccc2ccc(=O)oc2c1 [Example 2, 7-coumarin oleate]	blue	460
CCCCCCCC/C=C\CCCCCCCC(=O)Oc1cc(=O)oc2ccc(Cl)cc12 [Example 3, 6-chloro-4-coumarin oleate]	blue	460
CCCCCCCC/C=C\CCCCCCCC(=O)Oc1ccc2c(C)cc(=O)oc2c1 [Example 4]	blue	460
C=C(C)C(=O)Oc1ccc2c(c1)Oc1cc(OC(=O)C(=C)C)ccc1C21OC(=O)c2ccccc21 [Example 5, fluorescein dimethacrylate]	green	525
CCCCCCCC/C=C\CCCCCCCC(=O)Oc1cc2c(cc1Cl)C1(OC(=O)c3ccccc31)c1cc(Cl)c(OC(=O)CCCCCCC/C=C\CCCCCCCC)cc1O2 [Example 7, 2,7-dichlorofluorescein dioleate]	Reddish	530
resorufin dicrotonylate [Example 8]	red	572
resorufin dioleate [Example 9]	red	572
